This assay addresses Staphylococcal Nuclease Domain-containing protein 1 (SND1) (human (endogenous in U251)) (UniProt Q7KZF4). Nature of the assay: co-IP; total U251 cell lysate (Pierce IP Lysis/Wash Buffer: 0.025 M Tris pH 7.4, 0.15 M NaCl, 0.001 M EDTA, 1% NP-40, 5% glycerol); IP with anti-SND1 overnight at 4 °C, anti-rabbit IgG as negative control; western blot for BRG1.

Sequences of proteins named here, by UniProt entry; tags and fusion partners are left off.
UniProt Q7KZF4: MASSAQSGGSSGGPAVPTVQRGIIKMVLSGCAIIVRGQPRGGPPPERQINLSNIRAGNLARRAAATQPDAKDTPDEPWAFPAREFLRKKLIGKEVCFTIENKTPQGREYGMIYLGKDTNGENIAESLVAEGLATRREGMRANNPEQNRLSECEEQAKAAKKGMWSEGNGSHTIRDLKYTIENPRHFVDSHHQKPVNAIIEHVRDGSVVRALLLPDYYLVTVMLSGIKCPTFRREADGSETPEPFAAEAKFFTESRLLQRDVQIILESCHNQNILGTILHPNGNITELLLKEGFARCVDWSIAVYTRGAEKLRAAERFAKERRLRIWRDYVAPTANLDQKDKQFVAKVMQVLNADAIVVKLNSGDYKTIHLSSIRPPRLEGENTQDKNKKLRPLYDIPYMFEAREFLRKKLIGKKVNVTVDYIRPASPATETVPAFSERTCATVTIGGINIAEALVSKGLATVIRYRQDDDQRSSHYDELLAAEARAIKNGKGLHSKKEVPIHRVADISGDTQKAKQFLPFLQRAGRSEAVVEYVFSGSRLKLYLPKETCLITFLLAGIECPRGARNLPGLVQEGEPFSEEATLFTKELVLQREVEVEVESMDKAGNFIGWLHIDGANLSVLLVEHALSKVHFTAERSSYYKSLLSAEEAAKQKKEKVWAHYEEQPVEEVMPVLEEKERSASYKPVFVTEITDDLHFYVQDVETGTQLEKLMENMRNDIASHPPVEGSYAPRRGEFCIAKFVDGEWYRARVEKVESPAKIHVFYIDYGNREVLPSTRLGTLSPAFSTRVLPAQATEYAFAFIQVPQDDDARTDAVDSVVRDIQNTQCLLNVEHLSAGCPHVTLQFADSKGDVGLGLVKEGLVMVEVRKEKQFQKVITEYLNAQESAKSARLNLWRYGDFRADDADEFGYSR
UniProt P51532: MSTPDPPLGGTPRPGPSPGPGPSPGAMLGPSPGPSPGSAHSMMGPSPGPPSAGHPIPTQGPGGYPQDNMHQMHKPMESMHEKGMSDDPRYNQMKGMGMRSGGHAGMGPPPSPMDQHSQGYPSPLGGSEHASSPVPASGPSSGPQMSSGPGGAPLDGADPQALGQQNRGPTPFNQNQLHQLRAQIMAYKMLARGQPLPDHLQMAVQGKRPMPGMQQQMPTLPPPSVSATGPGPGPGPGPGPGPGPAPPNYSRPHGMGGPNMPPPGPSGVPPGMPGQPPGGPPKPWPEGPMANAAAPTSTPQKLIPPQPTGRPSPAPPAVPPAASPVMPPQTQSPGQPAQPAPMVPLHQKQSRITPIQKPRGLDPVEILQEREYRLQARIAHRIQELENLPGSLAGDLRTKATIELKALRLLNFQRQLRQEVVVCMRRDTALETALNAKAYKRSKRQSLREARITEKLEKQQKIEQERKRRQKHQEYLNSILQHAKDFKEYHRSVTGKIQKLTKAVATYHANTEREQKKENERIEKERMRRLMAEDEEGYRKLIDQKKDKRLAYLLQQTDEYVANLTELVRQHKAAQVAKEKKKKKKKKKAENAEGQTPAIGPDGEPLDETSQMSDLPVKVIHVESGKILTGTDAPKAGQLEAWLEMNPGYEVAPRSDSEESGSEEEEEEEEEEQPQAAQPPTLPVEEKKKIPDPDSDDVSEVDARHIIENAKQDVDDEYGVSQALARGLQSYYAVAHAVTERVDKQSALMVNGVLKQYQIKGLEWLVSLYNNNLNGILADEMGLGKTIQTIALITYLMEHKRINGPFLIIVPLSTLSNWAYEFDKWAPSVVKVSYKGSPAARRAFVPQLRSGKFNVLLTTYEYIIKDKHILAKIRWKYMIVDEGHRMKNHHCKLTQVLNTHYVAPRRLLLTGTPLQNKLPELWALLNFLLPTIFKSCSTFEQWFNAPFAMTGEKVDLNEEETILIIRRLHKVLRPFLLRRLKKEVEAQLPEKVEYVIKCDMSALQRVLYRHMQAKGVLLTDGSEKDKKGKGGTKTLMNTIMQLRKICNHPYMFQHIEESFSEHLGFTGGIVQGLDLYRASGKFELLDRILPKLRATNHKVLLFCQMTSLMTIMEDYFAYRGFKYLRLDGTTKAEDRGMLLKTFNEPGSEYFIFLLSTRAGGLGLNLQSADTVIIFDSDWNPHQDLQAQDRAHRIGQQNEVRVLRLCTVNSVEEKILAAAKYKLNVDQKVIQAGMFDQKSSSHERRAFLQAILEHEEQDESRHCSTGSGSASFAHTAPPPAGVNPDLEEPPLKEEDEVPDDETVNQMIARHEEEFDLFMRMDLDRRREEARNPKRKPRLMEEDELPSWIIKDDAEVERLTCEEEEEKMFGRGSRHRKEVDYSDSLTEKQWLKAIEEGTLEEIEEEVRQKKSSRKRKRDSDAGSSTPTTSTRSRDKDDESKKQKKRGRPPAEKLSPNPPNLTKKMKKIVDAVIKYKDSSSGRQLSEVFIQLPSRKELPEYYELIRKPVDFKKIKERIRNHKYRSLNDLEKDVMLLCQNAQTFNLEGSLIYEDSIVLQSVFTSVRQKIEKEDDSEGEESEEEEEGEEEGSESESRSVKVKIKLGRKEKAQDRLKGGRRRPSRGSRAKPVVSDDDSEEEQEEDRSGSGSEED

These are yes or no findings as the source states them, for the method shown. In cells and extracts the contact can be indirect. Some entries that bind do so weakly or less than the wild type.

With “BRG1, a core SWI/SNF subunit (from UniProt P51532 1-1647)”, the binding result was “binds”.

(Values after article PMC11339422.)
